From patent publication US20030100503A1 (PROLIFIA, published 2003)

Biological target: the molecule itself
Test: yeast two-hybrid, self-association

B1: murine Mts1 mutant 4S (all four cysteines at positions 76, 81, 86 and 93 changed to serines) (other)
chain: MARPLEEALDVIVSTFHKYSGKEGDKFKLNKTELKELLTRELPSFLGKRTDEAAFQKVMSNLDSNRDNEVDFQEYSVFLSSIAMMSNEFFEGSPDKEPRKK
notes: also called Mts1-4S; 4S mutant; not shown: His6 tag from the pQE30 expression vector
Does B1 bind?
Result: binds
